Values of other authors in publication PMC11232401, “Characterization of antimalarial activity of artemisinin-based hybrid drugs” (Antimicrobial Agents and Chemotherapy, 2024).

Test system: J774 cell line
Parameters: method as in PMID 31290221, PMID 34832911, PMID 38559731
Settings: CC50/IC50, CC50 in J774 cell line; cited from earlier work

COCCOCCOCCOCCn1c(-c2ccc(-n3cc(-c4ccc(OC5OC6OC7(C)CCC8C(C)CCC(C5C)C68OO7)cc4)nn3)cc2)nc2ccccc21 (centres unmarked) [Hybrid 1]
Selectivity index: 33333

CC1CCC2C(C)C(OC(=O)CCC(=O)OCCNc3ccnc4cc(Cl)ccc34)OC3OC4(C)CCC1C32OO4 (centres unmarked) [Hybrid 2]
Selectivity index: 6378
